# Cleaved PARP in drug-treated melanoma cells

Data from the primary screen of doi:10.1371/journal.pone.0140310, rounded.

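Human melanoma cell lines in 1,536-well plates were treated with two drugs together for 72 h, then fixed, stained and imaged. Values are the share of nuclei positive for cleaved PARP as a percentage of the same share in the DMSO control: 100 is the control level, higher means more apoptosis. Concentrations were fixed for each drug; these are the higher of two levels. The file gives one value for each pair and line, without errors, so small differences may be noise. Basal and induced levels differ widely between cell lines.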
An unselected part of the screen is shown.
A dash means that no value is listed here.

All values are for the listed drug together with U73122 (2 µM): COc1ccc2c(c1)CCC1C2CCC2(C)C(NCCCCCCN3C(=O)C=CC3=O)CCC12 (centres undefined)

Compounds and concentrations:
SNS-314, 0.004 µM: O=C(Nc1cccc(Cl)c1)Nc1ncc(CCNc2ncnc3ccsc23)s1
T0901317, 7 µM: O=S(=O)(c1ccccc1)N(CC(F)(F)F)c1ccc(C(O)(C(F)(F)F)C(F)(F)F)cc1
PLX4720, 0.4 µM: CCCS(=O)(=O)Nc1ccc(F)c(C(=O)c2c[nH]c3ncc(Cl)cc23)c1F
ENMD-2076, 0.2 µM: Cc1cc(Nc2cc(N3CCN(C)CC3)nc(/C=C/c3ccccc3)n2)n[nH]1
vismodegib, 5 µM: CS(=O)(=O)c1ccc(C(=O)Nc2ccc(Cl)c(-c3ccccn3)c2)c(Cl)c1
lenalidomide, 5 µM: Nc1cccc2c1CN(C1CCC(=O)NC1=O)C2=O (centres undefined)
SNS-032, 0.05 µM: CC(C)(C)c1cnc(CSc2cnc(NC(=O)C3CCNCC3)s2)o1
XAV939, 10 µM: Oc1nc(-c2ccc(C(F)(F)F)cc2)nc2c1CSCC2
embelin, 6 µM: CCCCCCCCCCCC1=C(O)C(=O)C=C(O)C1=O
ruxolitinib, 5 µM: N#CC[C@H](C1CCCC1)n1cc(-c2ncnc3[nH]ccc23)cn1
vatalanib, 10 µM: Clc1ccc(Nc2nnc(Cc3ccncc3)c3ccccc23)cc1
lestaurtinib, 0.02 µM: C[C@]12O[C@H](C[C@]1(O)CO)n1c3ccccc3c3c4c(c5c6ccccc6n2c5c31)CNC4=O
KU-55933, 5 µM: O=c1cc(-c2cccc3c2Sc2ccccc2S3)oc(N2CCOCC2)c1
GW441756, 2 µM: Cn1cc(/C=C2\C(=O)Nc3cccnc32)c2ccccc21
indole-3-carbinol, 4 µM: OCc1c[nH]c2ccccc12
crizotinib, 1 µM: C[C@@H](Oc1cc(-c2cnn(C3CCNCC3)c2)cnc1N)c1c(Cl)ccc(F)c1Cl
tozasertib, 0.03 µM: Cc1cc(Nc2cc(N3CCN(C)CC3)nc(Sc3ccc(NC(=O)C4CC4)cc3)n2)n[nH]1
GSK650394, 0.8 µM: O=C(O)c1ccc(-c2c[nH]c3ncc(-c4ccccc4)cc23)cc1C1CCCC1
tanespimycin, 0.01 µM: C=CCNC1=C2C[C@@H](C)C[C@H](OC)[C@H](O)[C@@H](C)/C=C(\C)[C@H](OC(N)=O)[C@@H](OC)/C=C\C=C(/C)C(=O)NC(=CC1=O)C2=O
ZM336372, 10 µM: Cc1ccc(NC(=O)c2cccc(N(C)C)c2)cc1NC(=O)c1ccc(O)cc1
dasatinib, 0.02 µM: Cc1nc(Nc2ncc(C(=O)Nc3c(C)cccc3Cl)s2)cc(N2CCN(CCO)CC2)n1
RKI-983, 2 µM: C[C@@H](N)c1ccc(C(=O)Nc2ccnc3[nH]ccc23)cc1
perifosine, 2 µM: CCCCCCCCCCCCCCCCCCOP(=O)([O-])OC1CC[N+](C)(C)CC1
pazopanib, 2 µM: Cc1ccc(Nc2nccc(N(C)c3ccc4c(C)n(C)nc4c3)n2)cc1S(N)(=O)=O
enzastaurin, 4 µM: Cn1cc(C2=C(c3cn(C4CCN(Cc5ccccn5)CC4)c4ccccc34)C(=O)NC2=O)c2ccccc21
BI-78D3, 1 µM: O=c1[nH]nc(Sc2ncc([N+](=O)[O-])s2)n1-c1ccc2c(c1)OCCO2

Second drug | WM1745 | 501mel | A375 | RPMI-7951 | WM3526 | A101D | COLO 792 | UACC-257 | SK-MEL-28 | IST-MEL1 | SK-MEL-30 | SK-MEL-2
perifosine | - | 248 | 136 | 287 | 56.8 | 173 | 54.8 | 50.2 | 378 | 75.7 | 143 | 106
GSK650394 | 126 | 82.6 | 190 | 114 | 136 | 222 | 85.2 | 101 | 150 | 153 | 141 | 32.3
enzastaurin | - | 150 | 258 | 149 | 171 | 187 | 136 | 66.5 | 69.7 | 154 | 87.1 | 211
indole-3-carbinol | - | 60.9 | 114 | 417 | 159 | 255 | 184 | 202 | 173 | 50.5 | 193 | 122
lenalidomide | 118 | 191 | 325 | 89.3 | 96.7 | 194 | 118 | 55.9 | 30.8 | 5900 | 97.8 | 75.6
ENMD-2076 | - | 153 | 379 | 132 | 134 | 93.1 | 128 | 154 | 162 | 80.6 | 171 | 164
T0901317 | 440 | 176 | 157 | 108 | 81.0 | 117 | 99.7 | 110 | 77.3 | 61.2 | 152 | 64.0
ZM336372 | 141 | 156 | 755 | 74.5 | 147 | 121 | 93.6 | 139 | 94.2 | 115 | 94.0 | 58.7
SNS-032 | 123 | 58.0 | 141 | 329 | 54.5 | 53.7 | 99.9 | 76.4 | 147 | 54.4 | 165 | 90.8
ruxolitinib | - | 82.6 | 123 | 432 | 104 | 130 | 149 | 198 | 69.4 | 331 | 196 | 105
pazopanib | - | 71.1 | 59.6 | 139 | 87.5 | 122 | 69.8 | 32.8 | 73.5 | 43.4 | 93.5 | 19.6
vismodegib | - | 43.4 | 110 | 262 | 98.9 | 52.6 | 89.3 | 29.2 | 95.4 | 60.5 | 150 | 65.9
BI-78D3 | - | 65.3 | 161 | 111 | 112 | 110 | 99.0 | 42.4 | 185 | 76.8 | 116 | 201
embelin | 115 | 387 | 92.2 | 45.4 | 157 | 83.2 | 341 | 47.2 | 418 | 43.3 | 77.1 | 540
lestaurtinib | - | 94.8 | 161 | 204 | 242 | 71.4 | 97.2 | 31.8 | 113 | 87.6 | 171 | 100
dasatinib | 283 | 57.7 | 99.5 | 380 | 108 | 345 | 138 | 68.1 | 129 | 96.0 | 287 | 93.8
vatalanib | - | 196 | 343 | 631 | 213 | 319 | 198 | 37.5 | 117 | 172 | 149 | 115
SNS-314 | 115 | 81.6 | 44.1 | 254 | 117 | 147 | 140 | 123 | 140 | 64.2 | 65.7 | 94.2
PLX4720 | - | 69.1 | 82.6 | 212 | 147 | 78.5 | 52.5 | 102 | 94.4 | 85.5 | 85.3 | 171
RKI-983 | - | 82.5 | 321 | 469 | 111 | 152 | 95.3 | 163 | 79.9 | 132 | 184 | 184
crizotinib | - | 60.5 | 124 | 172 | 113 | 181 | 83.1 | 58.3 | 61.6 | 96.5 | 97.3 | 78.1
KU-55933 | 137 | 290 | 126 | 99.9 | 88.7 | 91.2 | 148 | 56.1 | 71.8 | 129 | 83.2 | 97.0
tanespimycin | - | 120 | 58.1 | 440 | 70.3 | 143 | 82.7 | 36.3 | 182 | 47.2 | 104 | 66.2
GW441756 | 135 | 27.6 | 27.9 | 79.5 | 155 | 75.5 | 90.3 | 48.1 | 115 | 127 | 72.5 | 55.4
XAV939 | 132 | 31.3 | 38.2 | 126 | 71.4 | 145 | 87.8 | 152 | 41.5 | 61.3 | 40.2 | 153
tozasertib | - | 142 | 67.4 | 179 | 94.1 | 63.5 | 93.6 | 42.7 | 148 | 83.1 | 52.6 | 38.7

The first 2 entries again:

| Second drug | WM1745 | 501mel | A375 | RPMI-7951 | WM3526 | A101D | COLO 792 | UACC-257 | SK-MEL-28 | IST-MEL1 | SK-MEL-30 | SK-MEL-2 |
|---|---|---|---|---|---|---|---|---|---|---|---|---|
| perifosine | - | 248 | 136 | 287 | 56.8 | 173 | 54.8 | 50.2 | 378 | 75.7 | 143 | 106 |
| GSK650394 | 126 | 82.6 | 190 | 114 | 136 | 222 | 85.2 | 101 | 150 | 153 | 141 | 32.3 |